Experimental data published in patent US20220372448A1, “CELL LINE AND PRODUCING METHOD THEREOF” (University of Yamanashi, priority 2021, published 2022).
“Also recorded” adds a separate entry of the source. At least one structure is not confirmed: it was looked up by name or label, or the drawing left a doubt.

What was measured:
Type in all cases: cell-based, SARS-CoV-2
[1] = tested on: new coronavirus replicon (SCoV-Rep-Reo) replication in HEK293T cells, Huh7 cells, or VeroE6 cells
[2] = tested on: N protein of the new coronavirus replicon in VeroE6/Rep #3 cell line
[3] = tested on: replicon RNA (subgenomic RNA 1 to 3) in VeroE6/Rep #3 cell line
[4] = tested on: new coronavirus replicon replication in VeroE6/Rep #3 cell line

In the case of `CCC(CC)COC(=O)[C@H](C)N[P@](=O)(OC[C@H]1O[C@@](C#N)(c2ccc3c(N)ncnn23)[C@H](O)[C@@H]1O)Oc1ccccc1` [remdesivir], the “activity of Renilla luciferase (replicon replication)” value [1] is reported as “reduced”, the “expression level of the N protein (Western blotting)” value [2] is reported as “reduced” and the “intracellular replicon RNA (Northern blotting)” value [3] is reported as “reduced”. The Renilla luciferase activity [4] was “reduced; also recorded: mild reduction”.
